Measurements reported in PubChem BioAssay AID743121 (NCATS, 2013).

- Test: 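Partners whose loss is lethal together with topoisomerase I blockade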 (primary screen)
- Cells: MDA-MB-231 cells, a human breast cancer line
- Reagent: single siRNA against human genes, 20 nM siRNA (0.8 pmol per well)
- Duration: 120 h (drug added 48 h after transfection, read 72 h later)
- Conditions: camptothecin 20 nM (about EC30) for 72 h; vehicle 0.1% DMSO in parallel plates
- Measured: 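CellTiter-Glo ATP signal, scaled to control siRNA as percent viability; sensitisation given as log2 of untreated divided by camptothecin-treated viability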
- Direction: log2 vehicle/camptothecin viability: higher = stronger sensitisation to camptothecin; viability with camptothecin: higher = more viable cells
- Call rule: 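Each gene scored by redundant siRNA activity (RSA) over its individual siRNA ratios; a gene is called active at p < 0.001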
Shown is an unselected part of about 26,000 deposited reagents. In the full data, 167 (0.63%) were called active. 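Calls are per gene from RSA p-values that are not deposited; an individual active-marked siRNA can sensitise only weakly.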 Unmarked entries are inactive. Reagents against one gene are numbered here. Not all columns of the deposit are shown.

| gene | siRNA no. | log2 vehicle/camptothecin viability | viability with camptothecin (% of control) |
| --- | --- | --- | --- |
| GIPR | 1 | -0.0319 | 125 |
| GIPR | 2 | -0.226 | 82.2 |
| GIPR | 3 | -0.716 | 65.5 |
| GIPR | 4 | -0.328 | 68.1 |
| RORC | 1 | 0.321 | 42.3 |
| RORC | 2 | -0.412 | 66.8 |
| RORC | 3 | 0.0996 | 47 |
| RORC | 4 | 0.984 | 7.99 |
| IL4I1 | 1 | 0.0393 | 80 |
| IL4I1 | 2 | -0.234 | 84.9 |
| IL4I1 | 3 | 1.42 | 14.1 |
| IL4I1 | 4 | 0.817 | 44.2 |
| CARD11 | 1 | -0.0123 | 74.9 |
| CARD11 | 2 | -0.222 | 82.7 |
| CARD11 | 3 | -0.368 | 100 |
| RELA | 1 | -0.155 | 86.2 |
| RELA | 2 | -0.437 | 45.1 |
| RELA | 3 | -0.031 | 107 |
| RELA | 4 | 0.695 | 28.2 |
| ING4 | 1 | -0.55 | 46.7 |
| ING4 | 2 | -0.312 | 108 |
| EDNRA | 1 | 0.0875 | 96.2 |
| EDNRA | 2 | 0.0158 | 83.3 |
| EDNRA | 3 | 0.401 | 59 |
| EDNRA | 4 | 0.601 | 40.5 |
| RXFP2 | 1 | -0.16 | 97.5 |
| RXFP2 | 2 | -0.416 | 72.7 |
| RXFP2 | 3 | -0.285 | 79.7 |
| RXFP2 | 4 | -0.29 | 85.2 |
| TUBB4B | 1 | -0.255 | 94.8 |
| TUBB4B | 2 | -0.244 | 75.6 |
| TUBB4B | 3 | 0.237 | 74.6 |
| TUBB4B | 4 | -0.237 | 115 |
| PRCP | 1 | 0.00347 | 77.8 |
| PRCP | 2 | -0.201 | 49.3 |
| PRCP | 3 | -0.0821 | 84.8 |
| PRCP | 4 | -0.124 | 65.4 |
| ATR | 1 | 0.258 (active) | 87 |
| ATR | 2 | 0.694 (active) | 52.9 |
| ATR | 3 | 0.906 (active) | 29.4 |
| ATR | 4 | 2.46 (active) | 7.6 |
| CDKL3 | 1 | 0.0623 | 95.1 |
| CDKL3 | 2 | -0.698 | 113 |
| CDKL3 | 3 | -0.248 | 126 |
| CDKL3 | 4 | -0.529 | 43.1 |
| MECOM | 1 | 0.369 | 53.9 |
| MECOM | 2 | 0.176 | 73.5 |
| MECOM | 3 | -0.234 | 88 |
| MECOM | 4 | -0.458 | 91.1 |
| CCND2 | 1 | -0.305 | 97.3 |
| CCND2 | 2 | 0.13 | 65.2 |
| CCND2 | 3 | -0.111 | 54.3 |
| CCND2 | 4 | -0.0254 | 92.2 |

8 consecutive entries already listed:
| gene | siRNA no. | log2 vehicle/camptothecin viability | viability with camptothecin (% of control) |
| --- | --- | --- | --- |
| RXFP2 | 4 | -0.29 | 85.2 |
| TUBB4B | 1 | -0.255 | 94.8 |
| TUBB4B | 2 | -0.244 | 75.6 |
| TUBB4B | 3 | 0.237 | 74.6 |
| TUBB4B | 4 | -0.237 | 115 |
| PRCP | 1 | 0.00347 | 77.8 |
| PRCP | 2 | -0.201 | 49.3 |
| PRCP | 3 | -0.0821 | 84.8 |

More entries:
| gene | siRNA no. | log2 vehicle/camptothecin viability | viability with camptothecin (% of control) |
| --- | --- | --- | --- |
| TNFRSF10C | 1 | -0.41 | 108 |
| TNFRSF10C | 2 | -0.153 | 89.7 |
| TNFRSF10C | 3 | -0.0595 | 97.3 |
| TNFRSF10C | 4 | -0.34 | 79.2 |
| BACH2 | 1 | -0.31 | 54.3 |
| BACH2 | 2 | -0.181 | 44.2 |
| BACH2 | 3 | -0.316 | 84.7 |
| BACH2 | 4 | -0.138 | 91.2 |
| LRP5L | 1 | -0.361 | 73 |
| LRP5L | 2 | -0.579 | 37 |
| LRP5L | 3 | -0.318 | 46 |
| TRAIP | 1 | -0.25 | 110 |
| TRAIP | 2 | -0.759 | 38.8 |
| TRAIP | 3 | 0.0523 | 61.3 |
| TRAIP | 4 | -0.267 | 28.9 |
| GLDC | 1 | 0.0482 | 69.9 |
| GLDC | 2 | 1.12 | 28.8 |
| GLDC | 3 | -0.0125 | 98.8 |
| GLDC | 4 | 0.0131 | 62.6 |
| TLR1 | 1 | -0.166 | 106 |
| TLR1 | 2 | 0.369 | 33.9 |
| TLR1 | 3 | -0.416 | 97.5 |
| SLC25A43 | 1 | 0.609 | 79.1 |
| SLC25A43 | 2 | -0.47 | 93.7 |
| SLC25A43 | 3 | -0.241 | 65 |
| PDK4 | 1 | -0.283 | 92.1 |
| PDK4 | 2 | -0.395 | 67.7 |
| PDK4 | 3 | -0.727 | 62.4 |
| PDK4 | 4 | -0.21 | 66.6 |
| SEMA4D | 1 | -0.0714 | 80.2 |
| SEMA4D | 2 | -0.368 | 84.6 |
| SEMA4D | 3 | 0.023 | 103 |
| SEMA4D | 4 | -0.042 | 58.4 |
| FABP4 | 1 | 0.144 | 92.8 |
| FABP4 | 2 | -0.252 | 131 |
| FABP4 | 3 | 0.147 | 88.5 |
